From paper PMC6728282 come the findings set out here.

The chains behind the UniProt entries cited, without tags or fusion partners.
UniProt P58334: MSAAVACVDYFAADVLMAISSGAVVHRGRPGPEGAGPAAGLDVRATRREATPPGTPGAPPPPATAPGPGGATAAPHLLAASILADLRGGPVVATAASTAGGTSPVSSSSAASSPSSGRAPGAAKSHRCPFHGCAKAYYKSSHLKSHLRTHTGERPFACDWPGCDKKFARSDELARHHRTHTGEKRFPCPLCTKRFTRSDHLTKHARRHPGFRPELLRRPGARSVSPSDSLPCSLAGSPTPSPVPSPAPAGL

For test [1], the target named is T1, Flag-tagged mouse DISC1 (Disrupted-in-Schizophrenia 1) (mouse) (UniProt Q811T9).
T1 sequence: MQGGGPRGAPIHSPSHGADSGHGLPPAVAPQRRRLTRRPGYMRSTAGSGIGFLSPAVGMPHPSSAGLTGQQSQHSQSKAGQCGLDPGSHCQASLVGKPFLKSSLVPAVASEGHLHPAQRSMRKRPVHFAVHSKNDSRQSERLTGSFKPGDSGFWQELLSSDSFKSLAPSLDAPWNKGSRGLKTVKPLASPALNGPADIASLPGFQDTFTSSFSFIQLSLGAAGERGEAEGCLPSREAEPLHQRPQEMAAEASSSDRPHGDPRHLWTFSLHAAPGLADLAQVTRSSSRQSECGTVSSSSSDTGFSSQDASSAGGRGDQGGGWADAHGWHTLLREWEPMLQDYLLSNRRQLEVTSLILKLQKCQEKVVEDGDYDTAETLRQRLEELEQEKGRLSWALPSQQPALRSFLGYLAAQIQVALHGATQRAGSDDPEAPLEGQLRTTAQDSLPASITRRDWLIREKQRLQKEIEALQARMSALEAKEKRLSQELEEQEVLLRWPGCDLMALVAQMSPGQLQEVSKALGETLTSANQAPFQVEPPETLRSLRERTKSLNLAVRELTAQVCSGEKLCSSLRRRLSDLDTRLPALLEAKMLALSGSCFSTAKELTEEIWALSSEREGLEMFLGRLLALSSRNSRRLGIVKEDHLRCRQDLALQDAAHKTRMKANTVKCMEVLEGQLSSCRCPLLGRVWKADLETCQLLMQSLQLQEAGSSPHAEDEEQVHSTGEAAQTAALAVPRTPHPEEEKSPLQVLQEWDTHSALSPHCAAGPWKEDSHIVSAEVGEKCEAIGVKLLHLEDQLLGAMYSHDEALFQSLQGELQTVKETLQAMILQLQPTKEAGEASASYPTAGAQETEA
In words: co-IP; anti-Flag antibody IP from lysates of differentiated CAD cells expressing Flag-DISC1 and KLF16-HA; NP40 lysis buffer (150 mM NaCl, 50 mM Tris-HCl pH 8.0, 1% NP40), antibody 4 h or overnight at 4 °C, protein A-agarose.

For test [2], the target named is T2, endogenous DISC1 of differentiated CAD cells (mouse (endogenous in CAD cells)) (UniProt Q811T9).
T2 sequence: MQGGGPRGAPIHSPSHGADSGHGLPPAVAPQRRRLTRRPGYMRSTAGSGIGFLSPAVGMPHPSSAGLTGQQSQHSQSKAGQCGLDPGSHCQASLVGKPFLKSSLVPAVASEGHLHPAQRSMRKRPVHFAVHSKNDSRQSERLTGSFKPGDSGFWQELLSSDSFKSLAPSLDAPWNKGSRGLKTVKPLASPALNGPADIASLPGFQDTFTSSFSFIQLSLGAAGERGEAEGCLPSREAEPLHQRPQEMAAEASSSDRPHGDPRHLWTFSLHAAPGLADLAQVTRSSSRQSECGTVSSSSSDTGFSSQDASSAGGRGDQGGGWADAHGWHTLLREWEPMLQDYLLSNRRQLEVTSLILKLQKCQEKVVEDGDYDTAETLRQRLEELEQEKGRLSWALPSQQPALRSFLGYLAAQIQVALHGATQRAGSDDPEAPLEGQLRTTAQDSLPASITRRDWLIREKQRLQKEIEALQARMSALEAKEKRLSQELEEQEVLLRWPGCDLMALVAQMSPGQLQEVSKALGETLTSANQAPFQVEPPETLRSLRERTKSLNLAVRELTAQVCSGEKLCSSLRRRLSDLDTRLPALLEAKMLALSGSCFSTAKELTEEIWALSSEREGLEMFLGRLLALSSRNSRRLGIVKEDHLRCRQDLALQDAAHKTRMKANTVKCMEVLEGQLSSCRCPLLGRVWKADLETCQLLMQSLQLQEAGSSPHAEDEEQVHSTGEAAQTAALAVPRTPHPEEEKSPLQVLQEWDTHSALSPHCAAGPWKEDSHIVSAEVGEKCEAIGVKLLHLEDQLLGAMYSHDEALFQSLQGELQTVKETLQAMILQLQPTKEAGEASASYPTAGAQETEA
In words: co-IP; IP of endogenous proteins (anti-SIN3A named for Fig. 3f; reciprocal IPs in Fig. 3e) from lysates of differentiated CAD cells expressing KLF16-HA, without or with Flag-DISC1 overexpression (which enhanced the KLF16-HA/SIN3A coIP); NP40 lysis buffer (150 mM NaCl, 50 mM Tris-HCl pH 8.0, 1% NP40), 4 °C, protein A-agarose.

In test [3] the target is T3, endogenous SIN3A of differentiated CAD cells (mouse (endogenous in CAD cells)) (UniProt Q60520).
T3 sequence: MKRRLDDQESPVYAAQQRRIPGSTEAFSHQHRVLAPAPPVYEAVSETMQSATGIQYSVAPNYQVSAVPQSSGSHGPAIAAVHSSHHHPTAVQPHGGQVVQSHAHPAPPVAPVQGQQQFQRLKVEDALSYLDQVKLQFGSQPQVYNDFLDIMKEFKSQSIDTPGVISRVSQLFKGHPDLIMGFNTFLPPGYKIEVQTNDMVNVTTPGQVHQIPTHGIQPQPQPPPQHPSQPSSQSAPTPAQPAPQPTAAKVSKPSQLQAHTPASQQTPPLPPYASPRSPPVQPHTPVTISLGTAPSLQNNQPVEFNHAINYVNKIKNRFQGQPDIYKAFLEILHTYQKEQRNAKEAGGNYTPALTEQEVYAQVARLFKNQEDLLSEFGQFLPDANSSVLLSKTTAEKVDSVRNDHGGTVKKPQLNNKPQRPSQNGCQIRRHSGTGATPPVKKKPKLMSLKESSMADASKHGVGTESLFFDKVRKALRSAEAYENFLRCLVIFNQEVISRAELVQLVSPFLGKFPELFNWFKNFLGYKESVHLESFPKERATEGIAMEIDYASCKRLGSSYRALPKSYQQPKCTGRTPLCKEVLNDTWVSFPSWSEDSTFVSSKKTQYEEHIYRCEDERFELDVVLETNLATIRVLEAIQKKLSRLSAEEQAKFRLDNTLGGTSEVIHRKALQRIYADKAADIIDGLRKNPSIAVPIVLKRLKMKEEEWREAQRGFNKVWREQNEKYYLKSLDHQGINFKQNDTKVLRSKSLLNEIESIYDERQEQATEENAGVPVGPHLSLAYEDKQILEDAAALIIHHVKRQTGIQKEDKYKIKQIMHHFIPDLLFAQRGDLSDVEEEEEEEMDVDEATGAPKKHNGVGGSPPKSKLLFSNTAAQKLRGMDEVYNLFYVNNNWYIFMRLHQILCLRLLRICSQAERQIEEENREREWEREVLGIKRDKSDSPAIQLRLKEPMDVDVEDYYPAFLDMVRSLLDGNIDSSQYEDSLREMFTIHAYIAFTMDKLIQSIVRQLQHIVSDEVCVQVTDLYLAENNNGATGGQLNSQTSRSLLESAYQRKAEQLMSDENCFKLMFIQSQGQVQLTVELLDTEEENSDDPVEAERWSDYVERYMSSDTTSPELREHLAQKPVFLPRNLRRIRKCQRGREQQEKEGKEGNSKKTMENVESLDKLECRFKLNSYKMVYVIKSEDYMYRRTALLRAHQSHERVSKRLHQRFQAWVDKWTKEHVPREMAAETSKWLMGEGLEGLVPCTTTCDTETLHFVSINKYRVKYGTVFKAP
Described as above.

Test [4] concerns the target T2, endogenous DISC1 of differentiated CAD cells (mouse (endogenous in CAD cells)). The test is described as above. This is another data set of the same source.
Test [5] deals with T3, endogenous SIN3A of differentiated CAD cells (mouse (endogenous in CAD cells)). The test is described as above. This is another data set of the same source.

Like-named read-outs stand apart in the source and are kept apart here. These are yes or no findings as the source states them, for the method shown. In cells and extracts the contact can be indirect. Some entries that bind do so weakly or less than the wild type. For some assays here: Tags and fused reporters may be left off the sequences shown.

“KLF16-HA (mouse Krüppel-like factor 16, HA-tagged) (from UniProt P58334 1-251)”: the binding entry in test [1], in test [2] and in test [3] was “binds” in each case.

B1: endogenous SIN3A of differentiated CAD cells (protein, UniProt Q60520 1-1274)
chain: MKRRLDDQESPVYAAQQRRIPGSTEAFSHQHRVLAPAPPVYEAVSETMQSATGIQYSVAPNYQVSAVPQSSGSHGPAIAAVHSSHHHPTAVQPHGGQVVQSHAHPAPPVAPVQGQQQFQRLKVEDALSYLDQVKLQFGSQPQVYNDFLDIMKEFKSQSIDTPGVISRVSQLFKGHPDLIMGFNTFLPPGYKIEVQTNDMVNVTTPGQVHQIPTHGIQPQPQPPPQHPSQPSSQSAPTPAQPAPQPTAAKVSKPSQLQAHTPASQQTPPLPPYASPRSPPVQPHTPVTISLGTAPSLQNNQPVEFNHAINYVNKIKNRFQGQPDIYKAFLEILHTYQKEQRNAKEAGGNYTPALTEQEVYAQVARLFKNQEDLLSEFGQFLPDANSSVLLSKTTAEKVDSVRNDHGGTVKKPQLNNKPQRPSQNGCQIRRHSGTGATPPVKKKPKLMSLKESSMADASKHGVGTESLFFDKVRKALRSAEAYENFLRCLVIFNQEVISRAELVQLVSPFLGKFPELFNWFKNFLGYKESVHLESFPKERATEGIAMEIDYASCKRLGSSYRALPKSYQQPKCTGRTPLCKEVLNDTWVSFPSWSEDSTFVSSKKTQYEEHIYRCEDERFELDVVLETNLATIRVLEAIQKKLSRLSAEEQAKFRLDNTLGGTSEVIHRKALQRIYADKAADIIDGLRKNPSIAVPIVLKRLKMKEEEWREAQRGFNKVWREQNEKYYLKSLDHQGINFKQNDTKVLRSKSLLNEIESIYDERQEQATEENAGVPVGPHLSLAYEDKQILEDAAALIIHHVKRQTGIQKEDKYKIKQIMHHFIPDLLFAQRGDLSDVEEEEEEEMDVDEATGAPKKHNGVGGSPPKSKLLFSNTAAQKLRGMDEVYNLFYVNNNWYIFMRLHQILCLRLLRICSQAERQIEEENREREWEREVLGIKRDKSDSPAIQLRLKEPMDVDVEDYYPAFLDMVRSLLDGNIDSSQYEDSLREMFTIHAYIAFTMDKLIQSIVRQLQHIVSDEVCVQVTDLYLAENNNGATGGQLNSQTSRSLLESAYQRKAEQLMSDENCFKLMFIQSQGQVQLTVELLDTEEENSDDPVEAERWSDYVERYMSSDTTSPELREHLAQKPVFLPRNLRRIRKCQRGREQQEKEGKEGNSKKTMENVESLDKLECRFKLNSYKMVYVIKSEDYMYRRTALLRAHQSHERVSKRLHQRFQAWVDKWTKEHVPREMAAETSKWLMGEGLEGLVPCTTTCDTETLHFVSINKYRVKYGTVFKAP
Consider B1, for which the binding entry in test [4] is “binds”.

B2: endogenous DISC1 of differentiated CAD cells (protein, UniProt Q811T9 1-852)
chain: MQGGGPRGAPIHSPSHGADSGHGLPPAVAPQRRRLTRRPGYMRSTAGSGIGFLSPAVGMPHPSSAGLTGQQSQHSQSKAGQCGLDPGSHCQASLVGKPFLKSSLVPAVASEGHLHPAQRSMRKRPVHFAVHSKNDSRQSERLTGSFKPGDSGFWQELLSSDSFKSLAPSLDAPWNKGSRGLKTVKPLASPALNGPADIASLPGFQDTFTSSFSFIQLSLGAAGERGEAEGCLPSREAEPLHQRPQEMAAEASSSDRPHGDPRHLWTFSLHAAPGLADLAQVTRSSSRQSECGTVSSSSSDTGFSSQDASSAGGRGDQGGGWADAHGWHTLLREWEPMLQDYLLSNRRQLEVTSLILKLQKCQEKVVEDGDYDTAETLRQRLEELEQEKGRLSWALPSQQPALRSFLGYLAAQIQVALHGATQRAGSDDPEAPLEGQLRTTAQDSLPASITRRDWLIREKQRLQKEIEALQARMSALEAKEKRLSQELEEQEVLLRWPGCDLMALVAQMSPGQLQEVSKALGETLTSANQAPFQVEPPETLRSLRERTKSLNLAVRELTAQVCSGEKLCSSLRRRLSDLDTRLPALLEAKMLALSGSCFSTAKELTEEIWALSSEREGLEMFLGRLLALSSRNSRRLGIVKEDHLRCRQDLALQDAAHKTRMKANTVKCMEVLEGQLSSCRCPLLGRVWKADLETCQLLMQSLQLQEAGSSPHAEDEEQVHSTGEAAQTAALAVPRTPHPEEEKSPLQVLQEWDTHSALSPHCAAGPWKEDSHIVSAEVGEKCEAIGVKLLHLEDQLLGAMYSHDEALFQSLQGELQTVKETLQAMILQLQPTKEAGEASASYPTAGAQETEA
As for B2, the binding entry in test [5] is “binds”.
